Source: patent US20240067655A1 (NEURON23, INC., priority 2020, published 2024)
pIC50: −log10 of the molar value. Some of these results come from one statement about several compounds together.

Sequences of proteins named here, by UniProt entry; tags and fusion partners are left off. Residues count along the entry.
UniProt Q5S007, 1879-2138 limits assumed: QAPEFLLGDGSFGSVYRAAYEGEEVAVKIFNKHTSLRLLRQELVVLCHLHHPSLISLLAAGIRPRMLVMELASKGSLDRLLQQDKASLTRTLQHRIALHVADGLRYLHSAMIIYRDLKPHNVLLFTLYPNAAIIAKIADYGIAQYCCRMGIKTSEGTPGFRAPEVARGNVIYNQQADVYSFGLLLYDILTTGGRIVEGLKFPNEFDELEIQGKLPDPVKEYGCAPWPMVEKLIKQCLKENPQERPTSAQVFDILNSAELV
UniProt Q5S007, 1879-2138 G2019S limits assumed: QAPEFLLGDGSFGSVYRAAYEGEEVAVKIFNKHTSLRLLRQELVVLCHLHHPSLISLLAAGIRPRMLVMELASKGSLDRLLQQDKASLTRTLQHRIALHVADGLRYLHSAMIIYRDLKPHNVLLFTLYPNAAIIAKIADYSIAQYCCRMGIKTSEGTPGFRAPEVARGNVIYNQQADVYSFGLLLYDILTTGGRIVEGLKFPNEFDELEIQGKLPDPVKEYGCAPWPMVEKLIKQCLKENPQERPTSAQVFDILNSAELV

How the values were obtained:
[1] = target: T1, wt human LRRK2, catalytic site (Homo sapiens, UniProt Q5S007); test: TR-FRET LanthaScreen Eu Kinase Binding Assay, LRRK2 wt (Example 72); details: Example 72 text; one statement for LRRK2 (Wt) and LRRK2 (G2019); read-out: IC50, Inhibitory Activity Toward LRRK2 (Wt)
T1 construct: wt human LRRK2, catalytic site; purchased ThermoFisher/USA
Procedure: (§1) The compounds in Tables 5-6 were tested for their inhibitory effect on a set of kinases according to the following procedures.
(§2) The basic protocol for TR-FRET LanthaScreen Eu Kinase Binding Assay inhibitor studies were performed as follows. LanthaScreen Kinase Binding Assays (ThermoFisher/USA) to evaluate inhibitors were performed by addition of 5 μl of test compound in corresponding DMSO dilutions/5 μl of kinase/antibody mixture, 5 μl of tracer into 384 well small volume plates. After incubation for 1 hour at room temperature, plates were read. Data analysis of emission ratios was according to LanthaScreen Eu Kinase Binding Assay protocol.
(§3) Kinase and assay components were adjusted to final concentrations according to the kit protocol. For LRRK2: 5 nM wt human LRRK2, catalytic site, or G2019S human LRRK2, catalytic site (ThermoFisher/USA), 2 nM Eu-Anti-GST Antibody, 10 nM Kinase Tracer 236 in 1× Kinase Buffer A. For NUAK1: 8 nM wt human NUAK1, full length (ThermoFisher/USA), 2 nM Eu-Anti-His Antibody, 5 nM Kinase Tracer 236 in 1× Kinase Buffer A.

[2] = target: T2, wt human TYK2, catalytic site (Homo sapiens, UniProt P29597); test: HTRF KinEASE assay, TYK2 (Example 72); assay type: biochemical; details: Example 72 text; read-out: IC50, Inhibitory Activity Toward TYK2
T2 construct: wt human TYK2, catalytic site; purchased SignalChem/CAN
T2 sequence (P29597 897-1176 limits assumed): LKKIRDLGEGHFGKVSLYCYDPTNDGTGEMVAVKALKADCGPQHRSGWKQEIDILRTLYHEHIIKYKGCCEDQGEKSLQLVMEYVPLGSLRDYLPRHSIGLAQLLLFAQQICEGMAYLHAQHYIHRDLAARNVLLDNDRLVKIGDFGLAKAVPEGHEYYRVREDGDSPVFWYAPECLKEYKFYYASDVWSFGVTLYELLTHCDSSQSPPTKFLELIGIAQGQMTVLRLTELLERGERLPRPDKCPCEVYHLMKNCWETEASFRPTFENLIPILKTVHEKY
Procedure: as §1
Basic protocol for HTRF KinEASE assay (Cisbio/FRA) inhibitor studies involved two steps:
Enzymatic step: Addition of 4 μl of test compound in corresponding DMSO dilutions, 4 μl of kinase/substrate mixture, 2 μl of ATP into 384 well small volume plates. Incubation for at least 30 minutes at room temperature.
Detection step: Addition of 5 μl antibody and 5 μl streptavidin-XL665, read plate after 60 minutes. Data analysis of emission ratios according to KinEASE assay protocol.
Kinase and assay components were adjusted to final concentrations according to the kit protocol. For TYK2: 2 nM wt human TYK2, catalytic site (SignalChem/CAN), 1 μM HTRF KinEASE-TK Substrate-biotin, 1 μM ATP in 1× Kinase Buffer

[3] = target: T3, wt human NUAK1, full length (Homo sapiens, UniProt O60285); test: TR-FRET LanthaScreen Eu Kinase Binding Assay, NUAK1 (Example 72); details: Example 72 text; read-out: IC50, Inhibitory Activity Toward NUAK1
T3 construct: 8 nM wt human NUAK1, full length (ThermoFisher/USA); purchased ThermoFisher/USA
T3 sequence (O60285 1-661): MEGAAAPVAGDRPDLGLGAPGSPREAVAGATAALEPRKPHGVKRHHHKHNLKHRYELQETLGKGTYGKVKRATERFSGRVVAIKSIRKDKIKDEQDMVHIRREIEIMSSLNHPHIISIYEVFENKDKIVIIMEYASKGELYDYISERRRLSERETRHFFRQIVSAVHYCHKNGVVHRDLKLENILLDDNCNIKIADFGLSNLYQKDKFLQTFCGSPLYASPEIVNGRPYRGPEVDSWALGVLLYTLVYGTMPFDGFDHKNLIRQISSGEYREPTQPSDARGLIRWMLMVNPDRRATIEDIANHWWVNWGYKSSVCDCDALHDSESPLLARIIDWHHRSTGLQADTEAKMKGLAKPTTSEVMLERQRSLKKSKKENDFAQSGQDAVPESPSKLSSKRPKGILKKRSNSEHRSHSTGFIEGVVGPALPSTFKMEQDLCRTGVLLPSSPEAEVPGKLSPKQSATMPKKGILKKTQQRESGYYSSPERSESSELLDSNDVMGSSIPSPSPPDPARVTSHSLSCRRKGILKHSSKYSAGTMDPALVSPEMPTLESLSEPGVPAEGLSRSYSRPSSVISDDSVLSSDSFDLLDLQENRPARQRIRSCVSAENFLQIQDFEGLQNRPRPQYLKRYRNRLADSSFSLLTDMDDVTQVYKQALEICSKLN
Procedure: as §1, §2, §3

[4] = target: T4, G2019S human LRRK2, catalytic site (Homo sapiens, UniProt Q5S007, G2019S); test: TR-FRET LanthaScreen Eu Kinase Binding Assay, LRRK2 G2019S (Example 72); details: Example 72 text; one statement for LRRK2 (Wt) and LRRK2 (G2019); read-out: IC50, Inhibitory Activity Toward LRRK2 (G2019)
T4 construct: G2019S human LRRK2, catalytic site; purchased ThermoFisher/USA
Procedure: as §1, §2, §3

Measured: pIC50

3-(2,6-difluorophenyl)-1-isopropyl-1,7-dihydropyrazolo[3′,4′:6,7]azepino[3,4,5-cd]indole [Compound 312]
> 8.00: all assays above

3-(2,6-difluorophenyl)-1-methyl-1,7-dihydropyrazolo[3′,4′:6,7]azepino[3,4,5-cd]indole [Compound 310]
> 8.00: [1] | [2] | [4]
